# Source: PubChem BioAssay AID1224830 (NIAID, 2016)
# Assay: 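Genes whose knock-down alters the TNF-alpha reporter response to LPS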 (primary screen)
# Cell system: human THP-1 monocytic leukaemia cells, TNF dual-luciferase reporter clone, PMA-differentiated to macrophage-like cells
# Reagents: siRNA pool against human genes, 50 nM
# Timing: LPS for 4 h, given about 3 days after siRNA transfection
# Challenge: bacterial LPS (TLR4 ligand), 10 ng/ml
# Measured: 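TNF firefly reporter luminescence divided by renilla, normalised to the plate median, then turned into a robust z-score for each replicate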
# Scale: TNF reporter robust z-score: higher = stronger TNF reporter response to LPS
# Rule for the call: 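a well is active when its z-score exceeds 2.8 or falls below -1.5; control wells carry no call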
# This is one part, drawn at random, of about 18,000 reagents. Over the whole deposit, about 2,900 (16%) got an active call. 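Calls are made per well; low scores hint the gene aids the LPS response, high scores that it dampens it.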 Entries without a mark were called inactive. Repeated entries: four replicate wells of each siRNA pool. No sequences are given here.
gene symbol,TNF reporter robust z-score
OR4X2,0.65
OR4X2,0.88
OR4X2,-0.3
OR4X2,1.5
DENND4A,7.11 (active)
DENND4A,0.68
DENND4A,1.61
DENND4A,2.15
APOA4,-0.63
APOA4,-0.04
APOA4,-0.81
APOA4,-0.17
HOXB4,1.93
HOXB4,1.53
HOXB4,0.83
HOXB4,1.26
ATP6V0B,0.14
ATP6V0B,0.52
ATP6V0B,-0.18
ATP6V0B,-0.31
SOWAHA,1.65
SOWAHA,2.78
SOWAHA,3.07 (active)
SOWAHA,3.14 (active)
LILRB2,1.07
LILRB2,0.38
LILRB2,1.48
LILRB2,1.19
GSAP,0.42
GSAP,-0.78
GSAP,-1.32
GSAP,-0.28
EPHB2,0.54
EPHB2,-0.72
EPHB2,1.59
EPHB2,0.87
FAM229B,0.04
FAM229B,0.46
FAM229B,0.51
FAM229B,1.38
ZNF518B,0.18
ZNF518B,0.26
ZNF518B,-0.69
ZNF518B,-0.41
BBOX1,1.76
BBOX1,1.18
BBOX1,-0.15
BBOX1,0.86
ZNF689,-0.1
ZNF689,0.97
ZNF689,0.05
ZNF689,0.32
REEP5,0.9
REEP5,2.36
REEP5,1.96
REEP5,1.81
CCDC88A,-1.22
CCDC88A,-1.04
CCDC88A,-1.24
CCDC88A,-0.98
C1QTNF4,0.88
C1QTNF4,4.05 (active)
C1QTNF4,3.37 (active)
C1QTNF4,4.06 (active)
IMMT,-0.65
IMMT,-0.24
IMMT,-0.61
IMMT,0.42
SMU1,-0.38
SMU1,-1.09
SMU1,-0.69
SMU1,-0.83
KIFC1,0.71
KIFC1,1.36
KIFC1,-0.66
KIFC1,-0.4
PMEL,-0.25
PMEL,1.23
PMEL,-0.26
PMEL,0.19
CFH,1.53
CFH,1.78
CFH,1.44
CFH,0.89
KDELR3,1.32
KDELR3,2.51
KDELR3,0.19
KDELR3,2.45
CYP4Z1,0.4
CYP4Z1,1.08
CYP4Z1,0.49
CYP4Z1,-0.12
LSM7,2.54
LSM7,2.18
LSM7,-0.36
LSM7,-0.5
ACP7,0.92
ACP7,1.84
ACP7,1.29
ACP7,1.27
WDR54,0.55
WDR54,0.41
WDR54,0.78
WDR54,0.21
MLIP,-2.04 (active)
MLIP,-1.66 (active)
MLIP,-2.14 (active)
MLIP,-1.27
PDE6H,-1.36
PDE6H,-1.4
PDE6H,-1.12
PDE6H,-1.51 (active)

Reprinted from above (17 entries):
gene symbol,TNF reporter robust z-score
CFH,0.89
KDELR3,1.32
KDELR3,2.51
KDELR3,0.19
KDELR3,2.45
CYP4Z1,0.4
CYP4Z1,1.08
CYP4Z1,0.49
CYP4Z1,-0.12
LSM7,2.54
LSM7,2.18
LSM7,-0.36
LSM7,-0.5
ACP7,0.92
ACP7,1.84
ACP7,1.29
ACP7,1.27
